Data as given in PubChem BioAssay AID1259425 (University of Nebraska Medical Center, 2018).

Screen: 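Seek colon cancer weak points whose silencing resembles KSR1 loss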 (primary screen)
Cell system: HCT116 human colon cancer cells
Reagents: siRNA pool against human genes, 50 nM siRNA
Measured: 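mRNA of six signature genes measured together by branched-DNA assay after 50 nM siRNA pool, blank removed, divided by geometric mean of two housekeeping genes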
Reading the numbers: BNIP3L mRNA: higher = more BNIP3L transcript after knockdown; NDRG1 mRNA: higher = more NDRG1 transcript after knockdown
Shown is an unselected part of about 14,000 reagents. Further read-outs or replicates are left out here. Not given: the time to read-out.

FIBCD1 (fibrinogen C domain containing 1) | BNIP3L mRNA, set 1 = 0.086; NDRG1 mRNA, set 1 = 0.264
KLK5 (kallikrein related peptidase 5) | BNIP3L mRNA, set 1 = 0.132; NDRG1 mRNA, set 1 = 0.424
MTRR | BNIP3L mRNA, set 1 = 0.0416; NDRG1 mRNA, set 1 = 0.0886
KCNIP3 (potassium voltage-gated channel interacting protein 3) | BNIP3L mRNA, set 1 = 0.0807; NDRG1 mRNA, set 1 = 0.0789
TRIP11 (thyroid hormone receptor interactor 11) | BNIP3L mRNA, set 1 = 0.112; NDRG1 mRNA, set 1 = 0.0678
GPRASP3 | BNIP3L mRNA, set 1 = 0.0957; NDRG1 mRNA, set 1 = 0.224
PTPN7 (protein tyrosine phosphatase non-receptor type 7) | BNIP3L mRNA, set 1 = 0.0984; NDRG1 mRNA, set 1 = 0.306
TAF9 (TATA-box binding protein associated factor 9) | BNIP3L mRNA, set 1 = 0.106; NDRG1 mRNA, set 1 = 0.187
CASR (calcium sensing receptor) | BNIP3L mRNA, set 1 = 0.115; NDRG1 mRNA, set 1 = 0.26
RFC1 (replication factor C subunit 1) | BNIP3L mRNA, set 1 = 0.0679; NDRG1 mRNA, set 1 = 0.108
KIF21A (kinesin family member 21A) | BNIP3L mRNA, set 1 = 0.209; NDRG1 mRNA, set 1 = 0.246
FRMD1 (FERM domain containing 1) | BNIP3L mRNA, set 1 = 0.264; NDRG1 mRNA, set 1 = 0.39
UPF3A (UPF3A regulator of nonsense mediated mRNA decay) | BNIP3L mRNA, set 1 = 0.0863; NDRG1 mRNA, set 1 = 0.213
CALD1 (caldesmon 1) | BNIP3L mRNA, set 1 = 0.0869; NDRG1 mRNA, set 1 = 0.144
MTMR8 (myotubularin related protein 8) | BNIP3L mRNA, set 1 = 0.0887; NDRG1 mRNA, set 1 = 0.103
SLC50A1 | BNIP3L mRNA, set 1 = 0.0794; NDRG1 mRNA, set 1 = 0.126
ABI1 (abl interactor 1) | BNIP3L mRNA, set 1 = 0.221; NDRG1 mRNA, set 1 = 0.215
PANX1 (pannexin 1) | BNIP3L mRNA, set 1 = 0.05; NDRG1 mRNA, set 1 = 0.247
PLBD1 (phospholipase B domain containing 1) | BNIP3L mRNA, set 1 = 0.129; NDRG1 mRNA, set 1 = 0.315
MEPE (matrix extracellular phosphoglycoprotein) | BNIP3L mRNA, set 1 = 0.0998; NDRG1 mRNA, set 1 = 0.217
JAK3 (Janus kinase 3) | BNIP3L mRNA, set 1 = 0.126; NDRG1 mRNA, set 1 = 0.156
NECAP1 (NECAP endocytosis associated 1) | BNIP3L mRNA, set 1 = 0.199; NDRG1 mRNA, set 1 = 0.194
AGXT2 (alanine--glyoxylate aminotransferase 2) | BNIP3L mRNA, set 1 = 0.295; NDRG1 mRNA, set 1 = 0.774
CDC20 (cell division cycle 20) | BNIP3L mRNA, set 1 = 0.0856; NDRG1 mRNA, set 1 = 0.378
H4C5 (H4 clustered histone 5) | BNIP3L mRNA, set 1 = 0.121; NDRG1 mRNA, set 1 = 0.191
RTN4RL2 (reticulon 4 receptor like 2) | BNIP3L mRNA, set 1 = 0.207; NDRG1 mRNA, set 1 = 0.887
MIPEP (mitochondrial intermediate peptidase) | BNIP3L mRNA, set 1 = 0.0629; NDRG1 mRNA, set 1 = 0.0907
H3C2 (H3 clustered histone 2) | BNIP3L mRNA, set 1 = 0.0699; NDRG1 mRNA, set 1 = 0.0914

An excerpt taken from the entries so far, as a working copy:
UPF3A (UPF3A regulator of nonsense mediated mRNA decay) | BNIP3L mRNA, set 1 = 0.0863; NDRG1 mRNA, set 1 = 0.213
CALD1 (caldesmon 1) | BNIP3L mRNA, set 1 = 0.0869; NDRG1 mRNA, set 1 = 0.144
